Source: PubChem BioAssay AID1508600 (Functional Genomics Laboratory (NCATS/FGL), 2020)
Out of some 53,000 sequences screened, about 3,700 (7%) were called active.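 How the source made its calls: active means gene knockdowns whose robust z-score for IL-1 alpha signal is at least 2 or at most -2, so actives lie on both sides; inactive means the rest.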 The list shows a part of the results.

assay: Components of the Cytosolic LPS Sensing Pathway: Gene Identification via Genome-wide siRNA Screen; conditions: RAW264.7 macrophages, IL-1a HTRF, actives lie on both sides, screened at 100 nM (by protocol), cells primed 5 h with Pam3CSK4 first;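 further: robust z of the log signal after scaling to non-targeting control siRNA wells of the plate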
How it was run: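 Supernatant IL-1a by HTRF from RAW264.7 cells primed with Pam3CSK4 (5 hours) and transfected with LipidA (24 hour) after 48h siRNA knockdown at 100 nM; cell viability checked with CellTiter-Glo.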

| Sequence | z-score |
| --- | --- |
| GGAUUUGAGCGAUAUGAGCTT against Tex12 | active: -3.29 |
| GGUACUCGGAUUUGAUUAATT against Myo6 | inactive: 0.403 |
| GGGAAUUCUCCUGUUUGCUTT against Plp2 | active: -2.22 |
| GGCUCACAAUAUUGUAUACTT against Ndufa5 | inactive: -0.436 |
| GUGAACCACACUGUCUGAGTT against Tmem37 | inactive: 1.26 |
| GGACCUGCUUGAACAUUACTT against Sh2d2a | inactive: -1.21 |
| GGAGCUUCUUUUUUGUUUATT against Myog | inactive: 0.492 |
| CAGCUUCUCAUAAAUCUUCTT against Olfr1385 | inactive: -0.878 |
| CCCUAACUUAAUAAAACCUTT against Triobp | active: -2.41 |
| GCUUAUCACUUCAGAUAUCTT against Bmp2k | inactive: 1.49 |
| GCUUCGACAUUGUUAGUUATT against Ammecr1 | inactive: 0.322 |
| GCAGAUAUUCUCUGUGCAGTT against Ccnf | inactive: -0.607 |
| GGAAAAGUGGAAUCAGAUUTT against Uty | inactive: -0.672 |
| GGCCAUCAUUUUCACAACUTT against Gk5 | inactive: -0.114 |
| GGUUUUUCUAAGAGAACGGTT against Rnft1 | inactive: -0.558 |
| GGUGGAUUCUAUUAAAUGCTT against Gm14461 | inactive: 0.462 |
| CGCGUACAGAAGCAGUUAGTT against Cep170b | inactive: 1.84 |
| GGAAGAUGAUUAUGAAGAUTT against Apc | inactive: -0.143 |
| CGAAAUGGGAUUAAAACAATT against Fam181b | inactive: 0.19 |
| GGUGACUCAUAUUCGGAUCTT against Ptpn6 | inactive: 1.44 |
| GGAGAAAUGAAGGUAUACATT against Cert1 | inactive: -1.12 |
| GGACAGUGUUUUUUGUAGUTT against Pdcd4 | inactive: -0.809 |

| Sequence | z-score |
| --- | --- |
| GGUUUGAGAAAUGACUUAATT against Naa15 | inactive: 0.328 |
| GCCAUUAAGAUCGCUUACUTT against Selenop | inactive: -0.432 |
| GGACUAGUGUGAAAAAGGATT against Nsd1 | active: -2.87 |
| GCUCUUGUAUGUUCUGCUGTT against Tmem86b | inactive: -0.311 |
| CGCAAUGCUGGAUUAUUUATT against Ceacam2 | inactive: 0.628 |
| GGAGAAUCUGGUCUGGGUATT against Septin4 | inactive: 1.04 |
| GCUACAUACCCAAAUACAUTT against Trpc4ap | active: 2.1 |
| CGGGAUAUCAUUCUCCAUATT against Lnpep | inactive: 0.62 |
| GGAAUGAAAUCUCUGCAUGTT against Zfand5 | inactive: 0.574 |
| GUGUGCUGUCCUCAGUAGATT against Olfr1086 | inactive: -0.725 |
| GGCCUUUAAUUUCUUACACTT against Akt1s1 | inactive: -0.6 |
| GGAAUAUUGGUUGUGAUGATT against Ralb | inactive: -0.197 |
| GGCAGUGUAUCACAACGUGTT against Commd10 | inactive: 0.591 |
| GGGUCUCUUGUGGUACAUCTT against Cln3 | active: 3.41 |
| CCACUAUGUUCUCUGGAUATT against Llgl1 | inactive: -0.218 |
| GGAGACCUAAAAUGUCUUUTT against Klrb1b | inactive: 0.6 |
| GCGUGGAGUCUUCAGUCAUTT against Vhl | inactive: -0.101 |
| GGAGAUUGGAAAAACCAAATT against Zfp74 | inactive: 0.495 |
| GGAGACAGAAAAGAAGUUGTT against Gpr108 | inactive: -0.119 |
| GGAGCAGGAAUCAUUGACGTT against Chil3 | inactive: 0.922 |
| CCGAGUCUCUUAGAAUAAUTT against Tfcp2l1 | inactive: 1.27 |
| GGCGAAUCUUUCCAACGCGTT against Marco | inactive: 0.443 |

Single values from above.
Entry of GGCAGUGUAUCACAACGUGTT against Commd10 under z-score: inactive: 0.591
Entry of GGAGCAGGAAUCAUUGACGTT against Chil3 under z-score: inactive: 0.922
Entry of CCACUAUGUUCUCUGGAUATT against Llgl1 under z-score: inactive: -0.218
Entry of CGGGAUAUCAUUCUCCAUATT against Lnpep under z-score: inactive: 0.62

Remaining list, next part:

| Sequence | z-score |
| --- | --- |
| GGCAGGAUCUUUACAUCUCTT against Krtap31-1 | inactive: 0.796 |
| AGUACACUUGCUCCUUCUGTT against Rpl37a | inactive: -0.0364 |
| GGUGACGAAACUCCUAAAATT against Hars | inactive: 0.0366 |
| GCUUUACGUCAGGAGAUAATT against Pak3 | inactive: 0.0681 |
| GGCGGAACAAGAUGACUCATT against Arnt2 | inactive: 0.819 |
| GGAAGUGUCUUAGCACCCATT against Zfp330 | inactive: 0.53 |
| GGUGCCUGUAUAUCUCCAATT against Aadacl4fm1 | inactive: 0.251 |
| GGUCAUCGGACAUUAUUUATT against Slc4a10 | inactive: -0.903 |
| GGUACAAUCUUAUCUGUGGTT against Dsg1a | inactive: -0.701 |
| GCCUCCUAUCCUGGGAAGATT against Prss3 | active: 2.54 |
| GGCCCUUUCUGUCACUUAGTT against Myl12b | inactive: 0.269 |
| CCUGGUCAAUCGAUUCAUATT against 5330416C01Rik | inactive: -0.12 |
| GCCUCUCCUAUCCCAAUUATT against Enpp6 | inactive: -1.21 |
| GGUCCCUGAGGAUUUCAUCTT against Nprl2 | inactive: 1.31 |
| GGAAUCGCUGUUAUAGUUATT against Spast | inactive: 0.26 |
| GCAGUAGUCUUGGAAUUAATT against Bhlhe41 | active: 2.15 |
| GGAAUGUGUAUUCCAAAAUTT against Gp2 | inactive: 0.309 |
| CCCAUCACUUUAACCAAAGTT against Dhrs7c | inactive: -1.36 |
| GGAAGAGGUUUUAUCAGAATT against Atpaf2 | inactive: -0.194 |
| GGACUAACCAGAAUUUUCATT against Kcnc2 | inactive: 0.595 |
| GGAUGCAGAGAAGAAUCUGTT against Psmd6 | active: -2.65 |
| CGAUGGGUAGUGUUUUAACTT against Paqr7 | inactive: 1.11 |

Reformatted bar-delimited: entries from further up.
Sequence | z-score
GCAGAUAUUCUCUGUGCAGTT against Ccnf | inactive: -0.607
GGAAAAGUGGAAUCAGAUUTT against Uty | inactive: -0.672
GGCCAUCAUUUUCACAACUTT against Gk5 | inactive: -0.114
GGUUUUUCUAAGAGAACGGTT against Rnft1 | inactive: -0.558
GGUGGAUUCUAUUAAAUGCTT against Gm14461 | inactive: 0.462
CGCGUACAGAAGCAGUUAGTT against Cep170b | inactive: 1.84

Following part.

| Sequence | z-score |
| --- | --- |
| GGAUCUGAAGGAAUACUUUTT against Lmf1 | inactive: 1.69 |
| GGAAGAGGAGCAAAAGCCATT against Slc34a1 | inactive: -0.316 |
| GGGAGGAUGGUGGUAUAACTT against Angptl2 | inactive: -0.331 |
| CGUCAUUCACCCUAAGCCATT against Osr1 | inactive: 1.16 |
| GGCAAGAAAUACAAAGGAUTT against Pi4kb | inactive: 0.394 |
| GGUUGUUAGAGAUUUGACCTT against Kctd12 | inactive: -0.208 |
| GCUCUACCUUCGCUGGAAATT against Slc7a6 | active: 2.17 |
| GCGGUUCGCAUUUGUGAUGTT against Efl1 | inactive: -0.493 |
| GCACUUACCCACUCUGAACTT against Mrtfb | inactive: -1.16 |
| GGCACAGACGGAUCAACAGTT against Clcn3 | inactive: -0.725 |
| GGCAGUUGUUAAAAUCUGCTT against Asnsd1 | inactive: 0.471 |
| GGAAAUACGGCAGAACCCUTT against Kcnk9 | active: -2.54 |
| CCUACUCAAAUGAAGUUGUTT against Cdk17 | inactive: -0.384 |
| CGCAACAGCAAAUCAUCAGTT against Ap3s1 | inactive: 0.0839 |
| GGAGAAGCUAAGUAACUUCTT against Med19 | inactive: 0.5 |
| GGAUCUCUCACUGAUGCCATT against Itprid2 | inactive: -0.608 |
| GGUGUAAGACGUGUGGAGATT against Yju2 | inactive: -0.277 |
| GGCAGCAGCACUGAUUACUTT against Gjc2 | active: -2.17 |
| GCUUAACAAUUUCUCCCGCTT against Spef2 | inactive: 0.985 |
| CGUGAACAUUGACCCAGAATT against Cd300ld3 | inactive: 1.23 |
| GGUACUUCACAAUGGACAGTT against Zcchc9 | inactive: 0.951 |
| GGAACUGGAAUCAAGACCATT against Smg8 | inactive: -1.09 |

| Sequence | z-score |
| --- | --- |
| GGAUUAUGGGAGAUAUAAATT against Hapln1 | inactive: -0.672 |
| GGAAAUUGGUCCAGUUAUUTT against Magee1 | inactive: 1.37 |
| GCUCUUAAAAACUCAGCUUTT against Gpat3 | inactive: -0.0726 |
| GGAGCAUCCUGUUCUUCUATT against Actr1b | inactive: 0.233 |
| GGGCAGUCUGAUAGAGGAUTT against Adam30 | inactive: -0.632 |
| GGAUGAUCCAAGCAAUUGATT against Adcy2 | inactive: -0.316 |
| CGUGGAACCUGAAUAAUGATT against Aipl1 | inactive: 0.975 |
| ACUUCACCAUGGUACCCGGTT against Tspo | inactive: 1.06 |
| GACUUCUUCCUUUGCUAACTT against Cd1d2 | inactive: 0.416 |
| GGACUGCUACUUUUAUUUUTT against Serpinb9e | inactive: 1.1 |
| GUUAUCAGGAAGGAAAGCCTT against Sdhaf4 | inactive: 0.248 |
| GCUGUCGAUAGAAAAAAUCTT against Scml2 | inactive: 0.566 |
| CCCAUACAAAGCACUUACATT against Otub1 | inactive: 0.589 |
| GGAAGUGGUAACUGUGACATT against Cmtm2a | inactive: -0.433 |
| GGAGGGCAGAUCUACGAUGTT against Aars | inactive: 0.182 |
| GGUCUUACUCAAAAACCAATT against Tmem268 | inactive: -0.95 |
| GGACUCUCCCAAGUGCAAUTT against Pla2g10 | inactive: 0.113 |
| CCAUUAACUCUUUGAGUAUTT against Omg | inactive: 0.321 |
| GGAGUUAGAGCUGAGGUUATT against Cela1 | inactive: 0.633 |
